Test results: the supplement of paper PMC12823440, “Inhibitors supercharge kinase turnover through native proteolytic circuits” (Nature, 2025)
Structures can show the parent of a compound that is named as a salt. This is one part of the list. Hit calls seldom repeat between salt and free forms of one compound.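 Kinases were expressed as nanoluciferase fusions in K562 cells and luminescence was read every 4 h between 2 and 18 h as percent of control, DMSO set to 100% and a positive control to 0%. A time point counts as decreased when the signal drops significantly (2 sigma). The hit call is the authors' own, does not follow from the count of time points alone, and its rule is not shown.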

The chains behind the UniProt entries cited, without tags or fusion partners.
UniProt Q14289, whole entry, looked up: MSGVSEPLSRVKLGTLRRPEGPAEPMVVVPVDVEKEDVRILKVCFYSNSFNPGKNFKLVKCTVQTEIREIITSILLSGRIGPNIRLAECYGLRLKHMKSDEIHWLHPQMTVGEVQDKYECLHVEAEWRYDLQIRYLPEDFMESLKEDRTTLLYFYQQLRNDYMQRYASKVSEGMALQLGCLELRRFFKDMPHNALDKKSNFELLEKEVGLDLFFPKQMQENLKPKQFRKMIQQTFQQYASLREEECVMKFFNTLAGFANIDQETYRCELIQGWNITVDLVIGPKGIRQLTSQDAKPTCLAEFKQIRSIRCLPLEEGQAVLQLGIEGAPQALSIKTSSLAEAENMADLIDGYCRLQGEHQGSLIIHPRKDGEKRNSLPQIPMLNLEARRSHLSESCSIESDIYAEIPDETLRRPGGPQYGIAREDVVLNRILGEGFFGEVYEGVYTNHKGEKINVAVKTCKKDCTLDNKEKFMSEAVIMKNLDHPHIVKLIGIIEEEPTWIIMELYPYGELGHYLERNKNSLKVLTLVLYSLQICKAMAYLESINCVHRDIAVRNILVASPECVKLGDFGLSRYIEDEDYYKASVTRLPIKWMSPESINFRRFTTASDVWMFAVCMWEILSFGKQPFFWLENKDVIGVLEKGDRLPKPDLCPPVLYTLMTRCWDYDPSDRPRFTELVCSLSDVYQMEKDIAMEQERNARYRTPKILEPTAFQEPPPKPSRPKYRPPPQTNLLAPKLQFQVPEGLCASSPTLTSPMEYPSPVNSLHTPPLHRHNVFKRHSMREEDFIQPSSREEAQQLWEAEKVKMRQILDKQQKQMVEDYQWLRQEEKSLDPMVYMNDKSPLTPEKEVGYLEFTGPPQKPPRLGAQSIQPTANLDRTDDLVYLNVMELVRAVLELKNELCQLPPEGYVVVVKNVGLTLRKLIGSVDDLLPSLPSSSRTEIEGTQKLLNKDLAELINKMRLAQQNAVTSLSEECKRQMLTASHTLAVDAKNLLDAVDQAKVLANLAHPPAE

biological target: PTK2B (UniProt Q14289); experiment: kinase-Nluc reporter destabilization hit call (1 = scored as downregulated) (binary); higher = compound decreases kinase abundance; details: 2.5 µM; K562; 2-18 h

kinase-Nluc reporter destabilization hit call, inactive:
CN1CCCN(C(=O)c2cccc(-c3ccc(/C=C4/C(=O)Nc5ccc(Cl)cc54)o3)c2)CC1 [CX-6258 (hydrochloride)] 0
Clc1ccc(C2(c3ccc(-c4cn[nH]c4)cc3)CCNCC2)cc1 [AT7867 (dihydrochloride)] 0
CC(C)Oc1ccc(-c2nn([C@@H](C)c3oc4ccc(F)cc4c(=O)c3-c3cccc(F)c3)c3ncnc(N)c23)cc1F [Umbralisib] 0
C=CC(=O)Nc1cc(Nc2nccc(-c3cn(C)c4ccccc34)n2)c(OC)cc1N(C)CCN(C)C [Osimertinib] 0
COc1cc2c(Oc3ccc4[nH]c(C)cc4c3F)ncnc2cc1OCCCN1CCCC1 [Cediranib (maleate)] 0
CC(C)Oc1ccc(-c2nn([C@@H](C)c3oc4ccc(F)cc4c(=O)c3-c3cccc(F)c3)c3ncnc(N)c23)cc1F [Umbralisib (hydrochloride)] 0
COc1ccc(S(=O)(=O)N(CCO)c2ccccc2CN(C)C/C=C/c2ccc(Cl)cc2)cc1 [KN-93 (hydrochloride)] 0
C=CC(=O)N1CCN(c2ncnc3c(F)c(-c4c(O)cccc4F)c(Cl)cc23)CC1 0
COc1ccc(S(=O)(=O)Nc2ccccc2CN(C)C/C=C/c2ccc(Cl)cc2)cc1 [KN-92 (hydrochloride)] 0
CCN(CC)Cc1ccc(OC)c(-c2cc3c(-c4ccc(C(=O)O)c(C(C)C)c4)ccnc3[nH]2)c1 0
CN(C)C/C=C/C(=O)Nc1cc2c(Nc3ccc(F)c(Cl)c3)ncnc2cc1O[C@H]1CCOC1 [Afatinib (dimaleate)] 0
Oc1cccc(-c2nc(N3CCOCC3)c3oc4ncccc4c3n2)c1 [PI-103 (Hydrochloride)] 0
c1cc(-c2cnn3cc(-c4ccc(OCCN5CCCCC5)cc4)cnc23)ccn1 [Dorsomorphin] 0
COc1ccc(S(=O)(=O)N(CCO)c2ccccc2CN(C)C/C=C/c2ccc(Cl)cc2)cc1 [KN-93 (phosphate)] 0
Nc1ncnc2c1c(-c1ccc(Oc3ccccc3)cc1)nn2[C@@H]1CCCNC1 [IBT6A (hydrochloride)] 0

same assay, conditions: 10 µM; K562; 2-18 h

kinase-Nluc reporter destabilization hit call, inactive:
COc1cc2nccc(Oc3ccc(NC(=O)C4(C(=O)Nc5ccc(F)cc5)CC4)cc3)c2cc1OC [Cabozantinib (S-malate)] 0
Cn1cc(-c2cnc3ccc4ccc(CS(=O)(=O)NCc5ccccn5)cc4c(=O)c3c2)cn1 [MK-8033 (hydrochloride)] 0
CNC(=O)c1ccc(Nc2ncc(C(F)(F)F)c(NCc3nccnc3N(C)S(C)(=O)=O)n2)cc1 [Defactinib] 0
N#CCNC(=O)c1ccc(-c2ccnc(Nc3ccc(N4CCOCC4)cc3)n2)cc1 [Momelotinib] 0
CC(=O)c1c(C)c2cnc(Nc3ccc(N4CCNCC4)cn3)nc2n(C2CCCC2)c1=O [Palbociclib (isethionate)] 0
Nc1cncc(-c2cn3ccnc3c(Nc3ccc(N4CCN(C5COC5)CC4)cc3)n2)n1 [Lanraplenib (succinate)] 0
C#Cc1cccc(Nc2ncnc3cc4c(cc23)OCCOCCOCCO4)c1 [Icotinib] 0
O=C(O)c1ccc2c(c1)nc(Nc1cccc(Cl)c1)c1ccncc12 [Silmitasertib (sodium salt)] 0
CC(C)Nc1cc(-c2c[nH]c(C(=O)N[C@H](CO)c3cccc(Cl)c3)c2)c(Cl)cn1 [Ulixertinib (hydrochloride)] 0
C=CC(=O)N1CCN(c2ncnc3c(F)c(-c4c(O)cccc4F)c(Cl)cc23)CC1 0
CN(C)C(=O)c1cc2cnc(Nc3ccc(N4CCNCC4)cn3)nc2n1C1CCCC1 [Ribociclib] 0
COc1cc2c(-c3cnn4cc(N5CCC(N6CCN(C)CC6)CC5)cnc34)ccnc2cc1F [ALK2-IN-4 (succinate)] 0
CCN(CC)Cc1ccc(OC)c(-c2cc3c(-c4ccc(C(=O)O)c(C(C)C)c4)ccnc3[nH]2)c1 0
O=C(c1nn(-c2ccc(CN3CCOCC3)cc2)c2c1CS(=O)(=O)c1c(F)cccc1-2)N1CCOCC1 0
CC(C)(C)n1nc(-c2cccc3ccccc23)c2c(N)ncnc21 [1-Naphthyl PP1 (hydrochloride)] 0
CCN(CC)CC(=O)Nc1c(C)cccc1C [Lidocaine (hydrochloride)] 0
Cn1ncc(Cl)c1-c1cc(C(=O)N[C@H](CN)Cc2cccc(F)c2)sc1Cl [Afuresertib (hydrochloride)] 0
COc1cc2c(cc1OC)-c1c(C)c3ccc(OC)c(OC)c3c[n+]1CC2 [Dehydrocorydaline] 0
C[C@H](CCC(=O)NCCS(=O)(=O)O)[C@H]1CC[C@H]2[C@@H]3[C@@H](O)C[C@@H]4C[C@H](O)CC[C@]4(C)[C@H]3CC[C@]12C [Tauroursodeoxycholate (dihydrate)] 0
OCCn1cc(-c2cnc3nnn(Cc4ccc5ncccc5c4)c3n2)cn1 0
C[S+]([O-])c1ccc(-c2nc(-c3ccc(F)cc3)c(-c3ccncc3)[nH]2)cc1 (configuration not stated) 0
CC(C)(C)n1nc(-c2cccc3ccccc23)c2c(N)ncnc21 [1-Naphthyl PP1] 0
